Results from PMC5141508.
These are yes or no findings as the source states them, for the method shown. Binding seen in cells or lysates may run through a third protein.

Protein sequences, listed by entry. Tags and fused reporters are not part of them.
UniProt Q14145: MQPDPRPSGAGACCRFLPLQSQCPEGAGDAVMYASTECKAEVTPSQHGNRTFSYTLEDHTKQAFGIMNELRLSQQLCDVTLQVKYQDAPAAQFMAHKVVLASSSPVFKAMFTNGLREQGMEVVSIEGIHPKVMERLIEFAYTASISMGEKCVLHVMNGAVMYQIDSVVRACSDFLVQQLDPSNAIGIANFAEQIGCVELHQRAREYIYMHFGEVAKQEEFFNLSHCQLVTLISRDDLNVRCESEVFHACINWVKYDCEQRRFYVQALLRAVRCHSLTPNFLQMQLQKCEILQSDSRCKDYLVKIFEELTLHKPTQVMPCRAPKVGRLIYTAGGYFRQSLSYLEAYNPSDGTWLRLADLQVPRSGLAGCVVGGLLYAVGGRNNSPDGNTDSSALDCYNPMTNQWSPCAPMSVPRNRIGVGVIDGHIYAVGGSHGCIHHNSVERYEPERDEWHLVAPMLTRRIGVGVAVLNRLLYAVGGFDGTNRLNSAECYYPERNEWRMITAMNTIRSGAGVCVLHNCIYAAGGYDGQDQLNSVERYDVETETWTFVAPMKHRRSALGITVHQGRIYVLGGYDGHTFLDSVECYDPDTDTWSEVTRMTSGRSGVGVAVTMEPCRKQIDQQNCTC

Target: T1, NADPH oxidase 4 (human) (UniProt Q9NPH5)
T1 sequence: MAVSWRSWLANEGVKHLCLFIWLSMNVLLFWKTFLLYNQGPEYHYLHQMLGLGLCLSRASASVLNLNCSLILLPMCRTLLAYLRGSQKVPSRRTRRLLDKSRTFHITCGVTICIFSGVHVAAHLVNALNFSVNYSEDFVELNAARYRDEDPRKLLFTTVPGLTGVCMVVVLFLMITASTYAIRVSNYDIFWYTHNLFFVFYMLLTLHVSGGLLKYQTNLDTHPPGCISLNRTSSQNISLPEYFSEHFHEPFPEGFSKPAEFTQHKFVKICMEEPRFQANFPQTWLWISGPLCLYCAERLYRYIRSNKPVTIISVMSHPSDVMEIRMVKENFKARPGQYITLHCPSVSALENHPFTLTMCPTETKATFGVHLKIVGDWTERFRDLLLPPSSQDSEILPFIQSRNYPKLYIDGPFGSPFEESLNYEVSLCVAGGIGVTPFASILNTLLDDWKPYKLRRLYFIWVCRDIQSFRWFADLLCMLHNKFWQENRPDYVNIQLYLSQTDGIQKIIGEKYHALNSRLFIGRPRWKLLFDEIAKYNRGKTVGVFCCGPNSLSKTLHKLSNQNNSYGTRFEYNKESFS
Assay: co-IP; cells overexpressing human NOX4 (inducible) harvested in RIPA buffer under non denaturing conditions; pre-cleared with GammaBind Plus Sepharose beads; primary antibody 3 hours at 4 °C, beads 30 minutes at 4 °C; western blotting

binding: no binding
Substance: KEAP1 (from UniProt Q14145 1-624)
